Some of the results follow.
Tests used:
Experiment in all cases: log2 fold change, soluble protein after heating vs DMSO (PISA); higher = thermal stabilisation; K562 lysate, 10 uM; active = over 0.2 and 3.5 SD of the protein, either way, in both replicates (recomputed)
[1] = compound: C1=CC=C(C=C1)[C@H](COC2=CC3=C(C=C2)NC(=O)N3)NC(=O)C4=CC=CN(C4=O)CC5=CC(=C(C=C5)F)F
Procedure, shortened: (§1)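 K562 pellets were dounce-homogenised in PBS pH 7.4 containing 1 mM MgCl2, and the crude extract, at 1 mg/mL protein, was exposed to 10 μM compound for 30 min. Aliquots were heated for 3 min across 48°C-58°C, pooled, brought to 0.5% NP-40 at 4°C and spun at 21,000xg for 90 min, with the supernatant taken as soluble protein. TMTpro 16plex LC-MS/MS with equalised channel sums quantified that protein. Values are log-two fold changes in thermal stability relative to solvent controls, taken from duplicates.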

Amino acid sequences for entries named in this document (tags omitted). A change or cut given only in a name is not applied to a line headed by its entry.
UniProt O43143: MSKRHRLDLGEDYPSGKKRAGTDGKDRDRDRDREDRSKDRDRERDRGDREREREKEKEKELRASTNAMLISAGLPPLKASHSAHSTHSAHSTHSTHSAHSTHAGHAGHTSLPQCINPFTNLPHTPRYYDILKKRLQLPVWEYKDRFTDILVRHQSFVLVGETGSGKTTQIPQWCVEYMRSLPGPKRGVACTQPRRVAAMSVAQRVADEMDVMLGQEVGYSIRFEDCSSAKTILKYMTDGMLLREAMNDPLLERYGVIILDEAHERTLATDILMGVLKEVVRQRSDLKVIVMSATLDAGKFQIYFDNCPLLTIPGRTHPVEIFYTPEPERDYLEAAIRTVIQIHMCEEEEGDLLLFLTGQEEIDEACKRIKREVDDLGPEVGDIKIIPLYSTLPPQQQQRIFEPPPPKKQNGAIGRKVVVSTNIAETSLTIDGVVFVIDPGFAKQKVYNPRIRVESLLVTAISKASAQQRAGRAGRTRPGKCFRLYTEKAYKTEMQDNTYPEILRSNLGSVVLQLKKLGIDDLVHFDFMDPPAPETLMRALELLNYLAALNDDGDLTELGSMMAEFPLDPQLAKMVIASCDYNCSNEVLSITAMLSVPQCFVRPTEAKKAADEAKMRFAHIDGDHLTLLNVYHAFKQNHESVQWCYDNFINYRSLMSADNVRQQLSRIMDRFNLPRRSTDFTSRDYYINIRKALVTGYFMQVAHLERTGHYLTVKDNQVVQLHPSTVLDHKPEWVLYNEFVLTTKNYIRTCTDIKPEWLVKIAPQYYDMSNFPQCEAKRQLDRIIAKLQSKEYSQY
UniProt Q9BTC0, whole entry, looked up: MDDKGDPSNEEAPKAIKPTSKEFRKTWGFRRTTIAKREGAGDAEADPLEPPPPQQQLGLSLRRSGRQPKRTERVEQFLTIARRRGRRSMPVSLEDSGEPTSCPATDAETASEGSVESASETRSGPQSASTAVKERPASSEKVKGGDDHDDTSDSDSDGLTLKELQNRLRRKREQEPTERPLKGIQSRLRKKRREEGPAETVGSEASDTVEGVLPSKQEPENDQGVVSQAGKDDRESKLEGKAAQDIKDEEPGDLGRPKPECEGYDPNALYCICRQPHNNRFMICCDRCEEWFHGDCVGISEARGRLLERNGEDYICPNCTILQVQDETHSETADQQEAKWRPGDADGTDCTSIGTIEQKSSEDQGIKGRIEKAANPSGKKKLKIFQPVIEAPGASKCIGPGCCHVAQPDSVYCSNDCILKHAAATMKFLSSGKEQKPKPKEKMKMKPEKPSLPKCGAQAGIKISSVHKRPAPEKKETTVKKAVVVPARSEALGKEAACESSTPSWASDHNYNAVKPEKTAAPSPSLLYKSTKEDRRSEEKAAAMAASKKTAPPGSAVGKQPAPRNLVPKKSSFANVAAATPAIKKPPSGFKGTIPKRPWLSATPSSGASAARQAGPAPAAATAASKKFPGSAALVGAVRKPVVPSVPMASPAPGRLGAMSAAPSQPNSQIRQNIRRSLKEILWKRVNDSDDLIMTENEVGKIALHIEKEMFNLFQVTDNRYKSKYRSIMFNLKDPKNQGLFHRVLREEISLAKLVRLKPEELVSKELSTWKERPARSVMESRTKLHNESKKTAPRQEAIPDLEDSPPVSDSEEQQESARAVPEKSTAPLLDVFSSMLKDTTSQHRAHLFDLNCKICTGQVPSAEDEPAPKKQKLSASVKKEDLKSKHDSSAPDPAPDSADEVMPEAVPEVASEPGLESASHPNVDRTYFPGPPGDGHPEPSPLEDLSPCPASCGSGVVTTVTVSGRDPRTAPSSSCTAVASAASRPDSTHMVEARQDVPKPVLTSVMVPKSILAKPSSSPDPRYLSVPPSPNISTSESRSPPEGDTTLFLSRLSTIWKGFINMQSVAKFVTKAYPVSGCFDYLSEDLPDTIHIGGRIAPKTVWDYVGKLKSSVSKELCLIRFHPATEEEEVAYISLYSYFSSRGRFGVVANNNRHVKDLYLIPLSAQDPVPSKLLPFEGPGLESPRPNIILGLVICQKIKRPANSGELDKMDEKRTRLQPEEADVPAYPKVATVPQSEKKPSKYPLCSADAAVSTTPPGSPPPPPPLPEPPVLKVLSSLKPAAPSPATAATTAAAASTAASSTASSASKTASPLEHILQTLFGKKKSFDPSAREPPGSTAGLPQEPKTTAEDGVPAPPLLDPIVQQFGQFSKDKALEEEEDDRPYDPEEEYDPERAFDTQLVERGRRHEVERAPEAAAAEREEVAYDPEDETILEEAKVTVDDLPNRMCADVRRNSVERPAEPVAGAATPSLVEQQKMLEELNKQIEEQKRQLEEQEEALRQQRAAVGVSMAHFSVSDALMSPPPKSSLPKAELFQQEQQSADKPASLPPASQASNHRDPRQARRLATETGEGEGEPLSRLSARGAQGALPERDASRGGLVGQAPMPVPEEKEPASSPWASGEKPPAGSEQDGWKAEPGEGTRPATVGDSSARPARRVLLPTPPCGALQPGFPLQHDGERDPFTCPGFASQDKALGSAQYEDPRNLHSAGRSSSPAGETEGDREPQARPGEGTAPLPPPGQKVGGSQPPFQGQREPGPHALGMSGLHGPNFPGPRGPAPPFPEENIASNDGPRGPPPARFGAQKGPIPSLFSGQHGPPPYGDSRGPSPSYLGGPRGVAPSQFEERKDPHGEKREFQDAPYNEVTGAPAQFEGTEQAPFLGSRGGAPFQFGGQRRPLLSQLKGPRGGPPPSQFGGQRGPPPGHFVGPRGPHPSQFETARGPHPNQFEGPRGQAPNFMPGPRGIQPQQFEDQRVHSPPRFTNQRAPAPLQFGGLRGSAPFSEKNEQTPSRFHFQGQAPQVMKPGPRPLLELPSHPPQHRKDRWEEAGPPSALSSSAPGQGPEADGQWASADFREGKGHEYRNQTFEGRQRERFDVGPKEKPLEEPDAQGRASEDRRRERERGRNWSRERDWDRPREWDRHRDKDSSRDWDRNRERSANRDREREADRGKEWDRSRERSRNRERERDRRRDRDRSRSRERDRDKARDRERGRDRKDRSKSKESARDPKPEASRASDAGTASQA
UniProt Q96BY6: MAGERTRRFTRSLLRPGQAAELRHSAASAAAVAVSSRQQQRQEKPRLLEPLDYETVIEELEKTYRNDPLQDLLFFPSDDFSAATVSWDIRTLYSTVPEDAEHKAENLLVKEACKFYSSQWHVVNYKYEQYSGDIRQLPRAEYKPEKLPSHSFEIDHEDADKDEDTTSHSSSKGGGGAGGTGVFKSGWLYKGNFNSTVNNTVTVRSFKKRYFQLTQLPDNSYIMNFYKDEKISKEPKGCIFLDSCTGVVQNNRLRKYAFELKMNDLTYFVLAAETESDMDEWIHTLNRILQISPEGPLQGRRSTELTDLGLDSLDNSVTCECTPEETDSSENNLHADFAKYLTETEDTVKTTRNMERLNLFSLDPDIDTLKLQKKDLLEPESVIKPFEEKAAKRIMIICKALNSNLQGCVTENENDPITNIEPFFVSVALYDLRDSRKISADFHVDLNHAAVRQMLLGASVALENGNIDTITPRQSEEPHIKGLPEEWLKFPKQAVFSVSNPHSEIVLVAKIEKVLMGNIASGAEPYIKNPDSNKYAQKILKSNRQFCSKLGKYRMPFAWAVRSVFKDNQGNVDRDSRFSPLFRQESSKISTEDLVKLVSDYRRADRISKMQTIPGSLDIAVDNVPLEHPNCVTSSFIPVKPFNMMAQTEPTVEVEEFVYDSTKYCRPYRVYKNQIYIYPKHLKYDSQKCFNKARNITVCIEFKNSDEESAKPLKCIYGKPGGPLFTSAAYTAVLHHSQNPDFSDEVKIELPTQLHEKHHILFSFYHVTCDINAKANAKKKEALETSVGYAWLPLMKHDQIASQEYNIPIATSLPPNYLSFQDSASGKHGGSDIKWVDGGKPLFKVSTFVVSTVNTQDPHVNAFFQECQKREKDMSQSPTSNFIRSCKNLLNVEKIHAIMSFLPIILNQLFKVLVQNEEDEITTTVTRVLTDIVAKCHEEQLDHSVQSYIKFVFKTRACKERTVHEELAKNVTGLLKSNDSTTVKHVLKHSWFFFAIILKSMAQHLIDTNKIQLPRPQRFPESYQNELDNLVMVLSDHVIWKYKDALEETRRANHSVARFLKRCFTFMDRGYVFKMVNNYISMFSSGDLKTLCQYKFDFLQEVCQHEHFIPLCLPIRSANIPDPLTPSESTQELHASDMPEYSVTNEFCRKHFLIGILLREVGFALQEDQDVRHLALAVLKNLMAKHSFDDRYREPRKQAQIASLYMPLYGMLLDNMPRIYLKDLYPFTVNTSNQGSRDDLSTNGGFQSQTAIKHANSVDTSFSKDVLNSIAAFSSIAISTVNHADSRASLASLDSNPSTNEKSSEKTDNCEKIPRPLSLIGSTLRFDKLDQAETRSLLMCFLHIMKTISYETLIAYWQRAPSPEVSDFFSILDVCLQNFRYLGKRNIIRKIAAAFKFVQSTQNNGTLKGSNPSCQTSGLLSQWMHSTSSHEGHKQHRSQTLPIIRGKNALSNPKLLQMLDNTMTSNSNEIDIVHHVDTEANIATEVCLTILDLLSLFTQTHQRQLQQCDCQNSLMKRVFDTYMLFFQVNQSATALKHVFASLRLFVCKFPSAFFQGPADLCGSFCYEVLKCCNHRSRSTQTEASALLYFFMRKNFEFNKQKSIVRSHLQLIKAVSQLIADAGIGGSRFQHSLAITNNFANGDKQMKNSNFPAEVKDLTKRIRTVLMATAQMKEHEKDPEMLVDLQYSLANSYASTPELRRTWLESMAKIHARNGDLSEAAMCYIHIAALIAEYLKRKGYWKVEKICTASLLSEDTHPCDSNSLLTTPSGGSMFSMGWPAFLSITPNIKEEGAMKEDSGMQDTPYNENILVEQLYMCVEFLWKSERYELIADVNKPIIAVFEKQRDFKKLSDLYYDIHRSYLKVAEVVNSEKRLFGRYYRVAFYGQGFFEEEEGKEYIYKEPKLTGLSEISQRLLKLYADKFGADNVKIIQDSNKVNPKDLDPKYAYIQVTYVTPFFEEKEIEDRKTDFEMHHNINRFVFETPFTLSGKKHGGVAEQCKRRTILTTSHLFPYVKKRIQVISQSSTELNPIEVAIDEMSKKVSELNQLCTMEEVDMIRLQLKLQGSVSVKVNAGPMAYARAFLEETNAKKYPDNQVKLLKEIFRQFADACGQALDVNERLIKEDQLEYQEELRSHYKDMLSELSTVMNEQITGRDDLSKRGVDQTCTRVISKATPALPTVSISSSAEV
UniProt Q13268: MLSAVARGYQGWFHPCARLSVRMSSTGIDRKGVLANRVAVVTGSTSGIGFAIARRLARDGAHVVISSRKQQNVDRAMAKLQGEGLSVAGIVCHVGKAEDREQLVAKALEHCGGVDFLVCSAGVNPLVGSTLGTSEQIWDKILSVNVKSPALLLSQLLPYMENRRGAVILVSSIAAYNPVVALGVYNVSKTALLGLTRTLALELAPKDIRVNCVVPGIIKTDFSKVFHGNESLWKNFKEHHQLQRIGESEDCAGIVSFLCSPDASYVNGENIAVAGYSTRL
UniProt Q8WXX5: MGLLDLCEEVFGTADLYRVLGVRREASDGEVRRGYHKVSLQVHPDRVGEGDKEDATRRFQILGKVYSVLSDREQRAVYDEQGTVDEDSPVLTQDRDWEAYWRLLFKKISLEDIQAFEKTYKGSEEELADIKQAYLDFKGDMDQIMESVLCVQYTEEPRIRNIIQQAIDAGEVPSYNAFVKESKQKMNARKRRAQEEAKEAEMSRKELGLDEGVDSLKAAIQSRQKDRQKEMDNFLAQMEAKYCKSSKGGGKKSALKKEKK
UniProt Q8IX18: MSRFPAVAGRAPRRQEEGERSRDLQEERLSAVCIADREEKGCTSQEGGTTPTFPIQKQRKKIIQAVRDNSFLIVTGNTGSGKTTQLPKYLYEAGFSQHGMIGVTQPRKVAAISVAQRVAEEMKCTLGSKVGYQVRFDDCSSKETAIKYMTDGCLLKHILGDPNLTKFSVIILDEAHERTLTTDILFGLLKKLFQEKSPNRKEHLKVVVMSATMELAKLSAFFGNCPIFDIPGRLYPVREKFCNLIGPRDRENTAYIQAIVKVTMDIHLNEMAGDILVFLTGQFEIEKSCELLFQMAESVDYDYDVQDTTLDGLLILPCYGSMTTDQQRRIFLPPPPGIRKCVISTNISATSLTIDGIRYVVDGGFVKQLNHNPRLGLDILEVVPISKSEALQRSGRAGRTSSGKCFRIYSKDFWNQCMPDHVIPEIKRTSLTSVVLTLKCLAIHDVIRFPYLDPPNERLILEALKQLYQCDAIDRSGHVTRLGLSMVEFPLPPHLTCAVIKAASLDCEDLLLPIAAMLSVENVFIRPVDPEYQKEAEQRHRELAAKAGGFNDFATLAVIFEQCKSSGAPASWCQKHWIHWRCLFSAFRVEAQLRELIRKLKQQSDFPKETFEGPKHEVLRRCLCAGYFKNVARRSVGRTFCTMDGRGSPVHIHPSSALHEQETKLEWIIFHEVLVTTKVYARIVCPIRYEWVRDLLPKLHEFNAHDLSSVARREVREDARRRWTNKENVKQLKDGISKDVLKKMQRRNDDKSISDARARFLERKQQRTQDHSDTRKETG

[2] = compound: CC1=C(SC2=C1C(=N[C@H](C3=NN=C(N32)C)CC(=O)N)C4=CC=C(C=C4)Cl)C
Procedure, shortened: as §1

[3] = compound: CC1=C2C(=CC=C1)N=C(N(C2=O)C3=CC=CC=C3C)CN4C=NC5=C(N=CN=C54)N
Procedure, shortened: as §1

[4] = compound: Cc1sc2c(c1C)C(c1ccc(Cl)cc1)=N[C@@H](CC(=O)OC(C)(C)C)c1nnc(C)n1-2
Procedure, shortened: as §1

[5] = compound: c1ccc([C@@H]2C[C@H]2NC2CCNCC2)cc1
Procedure, shortened: as §1

Measured: log2 fold change

DNAJC3 (UniProt Q13217)
inactive: [1] 0.06 | [2] -0.073 | [3] -0.003 | [4] -0.01 | [5] 0.031

DNAJC17 (UniProt Q9NVM6)
inactive: [1] 0.018 | [2] 0.014 | [3] 0.043 | [4] -0.048 | [5] 0.011

DHX15 (UniProt O43143)
inactive: [1] 0.018 | [2] 0.019 | [3] 0.009 | [4] -0.015 | [5] -0.004

DHX34 (UniProt Q14147)
inactive: [1] -0.141 | [2] 0.108 | [3] 0.283 | [4] 0.098 | [5] -0.06

DNAJC5 (UniProt Q9H3Z4)
inactive: [1] 0.032 | [2] -0.015 | [3] -0.034 | [4] 0.009 | [5] -0.308

DLG1 isoform 2 (UniProt Q12959)
inactive: [1] 0.036 | [2] 0.008 | [3] 0.052 | [4] 0.006 | [5] 0.002

DNAJA1 (UniProt P31689)
inactive: [1] 0.013 | [2] -0.008 | [3] -0.025 | [4] -0.016 | [5] -0.036

DNAJC2 (UniProt Q99543)
inactive: [1] 0.049 | [2] -0.003 | [3] -0.015 | [4] 0.051 | [5] 0.086

DHX8 (UniProt Q14562)
inactive: [1] 0 | [2] 0.01 | [3] -0.012 | [4] -0.001 | [5] 0.007

DOP1A (UniProt Q5JWR5)
inactive: [1] 0.081 | [2] -0.036 | [4] -0.237

DIDO1 (UniProt Q9BTC0)
inactive: [1] -0.126 | [2] 0.022 | [3] 0.096 | [4] 0.007 | [5] 0.01

DIS3L2 (UniProt Q8IYB7)
inactive: [1] -0.023 | [2] 0.015 | [3] 0.067 | [4] 0.029 | [5] 0.034

DNAJC16 (UniProt Q9Y2G8)
inactive: [1] -0.081 | [2] 0.507 | [4] -0.252 | [5] 0.005

DHRS7 (UniProt Q9Y394)
inactive: [1] 0.036 | [2] -0.054 | [3] -0.015 | [4] 0.008 | [5] -0.001

2 neighbouring entries out of the list so far, quoted:
DNAJC16 (UniProt Q9Y2G8)
inactive: [1] -0.081 | [2] 0.507 | [4] -0.252 | [5] 0.005

DHRS7 (UniProt Q9Y394)
inactive: [1] 0.036 | [2] -0.054 | [3] -0.015 | [4] 0.008 | [5] -0.001

Following part

DLGAP5 isoform 3 (UniProt Q15398)
inactive: [1] -0.167 | [2] 0.031 | [4] -0.036 | [5] 0.021

DNM1 (UniProt Q05193)
inactive: [1] -0.044 | [2] -0.011 | [4] 0.01 | [5] 0.039

DOCK10 (UniProt Q96BY6)
inactive: [1] 0.053 | [2] -0.018 | [3] 0.062 | [4] -0.109 | [5] -0.491

DHRS2 (UniProt Q13268)
inactive: [1] -0.046 | [2] 0.068 | [3] -0.003 | [4] 0.045 | [5] 0.006

DIS3 (UniProt Q9Y2L1)
inactive: [1] 0.012 | [2] 0.025 | [3] 0.007 | [4] 0.051 | [5] 0.042

DMAP1 (UniProt Q9NPF5)
inactive: [1] 0.161 | [2] -0.04 | [3] 0.009 | [4] -0.049 | [5] 0.073

DNAJC9 (UniProt Q8WXX5)
inactive: [1] -0.002 | [2] 0.01 | [3] -0.049 | [4] 0.004 | [5] 0.019

DLD (UniProt P09622)
inactive: [1] 0.005 | [2] -0.017 | [3] 0.008 | [4] -0.022 | [5] -0.076

DHRS13 (UniProt Q6UX07)
inactive: [1] -0.13 | [2] 0.059 | [4] -0.099

DHX40 (UniProt Q8IX18)
inactive: [1] 0.015 | [2] 0.02 | [3] 0.063 | [4] -0.02 | [5] 0.016

DMAC2 isoform 4 (UniProt Q9NW81)
inactive: [1] -0.035 | [2] 0.05 | [3] 0.014 | [5] 0.087

DNAJC21 isoform 3 (UniProt Q5F1R6)
inactive: [1] 0.011 | [2] -0.033 | [3] 0.059 | [4] 0 | [5] 0.06

DNM1L isoform 6 (UniProt O00429)
inactive: [1] 0.001 | [2] 0.03 | [3] 0.039 | [4] 0.021 | [5] 0.038

DNPH1 (UniProt H0Y8X4)
inactive: [1] 0.034 | [2] 0.01 | [3] -0.023 | [4] -0.019 | [5] -0.002

DIAPH1 (UniProt H9KV28)
inactive: [1] 0.009 | [2] 0.023 | [3] 0.007 | [5] -0.117

DFFB (UniProt O76075)
inactive: [1] 0.06 | [2] -0.057 | [3] 0.061 | [4] -0.032 | [5] 0.081

DNMT1 (UniProt P26358)
inactive: [1] 0.096 | [2] -0.058 | [5] 0.091

DMD (UniProt P11532)
inactive: [1] -0.02 | [2] 0.009 | [3] 0.007 | [4] -0.007 | [5] -0.016

Source: the supplement of paper PMC10849652
